Measurements reported in article PMC4170624.
These are yes or no findings as the source states them, for the method shown. Tags and fused reporters may be left off the sequences shown.

Protein sequences, listed by entry. Tags and fused reporters are not part of them. Lines headed by an entry give the natural chain unless they say otherwise; changes in a name come on top.
UniProt P46109: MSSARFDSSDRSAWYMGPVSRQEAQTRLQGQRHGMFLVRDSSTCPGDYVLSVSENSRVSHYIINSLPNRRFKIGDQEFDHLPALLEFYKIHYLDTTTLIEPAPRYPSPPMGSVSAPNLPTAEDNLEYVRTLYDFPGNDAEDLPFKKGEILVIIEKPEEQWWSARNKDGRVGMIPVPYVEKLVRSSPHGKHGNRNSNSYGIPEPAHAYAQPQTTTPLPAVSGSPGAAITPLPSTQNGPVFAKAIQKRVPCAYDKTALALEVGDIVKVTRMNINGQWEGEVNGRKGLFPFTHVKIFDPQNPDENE

Biological target: T1, His6-pLASP1-Y171 (His6-LASP1 phosphorylated by ABL kinase) (human) (UniProt Q14847)
T1 sequence (chain, phosphotyrosine at 171): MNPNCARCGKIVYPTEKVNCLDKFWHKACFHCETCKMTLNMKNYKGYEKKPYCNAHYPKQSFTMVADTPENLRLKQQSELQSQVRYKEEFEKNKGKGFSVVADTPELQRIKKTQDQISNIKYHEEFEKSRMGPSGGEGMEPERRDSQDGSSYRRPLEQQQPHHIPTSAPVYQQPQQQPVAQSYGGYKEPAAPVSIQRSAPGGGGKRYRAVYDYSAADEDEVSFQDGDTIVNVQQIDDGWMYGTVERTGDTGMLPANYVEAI
Experiment: condition: 1 μg GST-tagged protein overlaid on 0.2 μg blotted His6-LASP1 phosphorylated by ABL kinase; far-Western, overlay or dot blot; 0.2 μg His6-LASP1 or His6-LASP1 phosphorylated by ABL kinase blotted on nitrocellulose; overlaid overnight at 4°C with 1 μg GST-tagged proteins; detected with GST antibody; both purified

binding: no binding
Substance: GST-CRKL-R39K (from UniProt P46109 1-303)
